Construct, isoform or probe ends are uncertain for at least one entry. For some assays here: Where cells or extracts were used, other partners may take part. For some assays here: Negatives hold for the conditions tested.
Experiments:
[1] = target: mTRF2 deltaN-49 (Mus musculus) (UniProt O35144); assay: competition with a labelled probe; settings: single-stranded oligonucleotide; protein in a lysate after overexpression; protein details: FLAG; single-stranded DNA
[2] = target: mTRF2 full length (Mus musculus) (UniProt O35144); assay: EMSA; settings: two complexes detected only in presence of anti-FLAG M2 antibody; no discrete complex without it; protein in a lysate after overexpression; protein details: N-terminal FLAG; label: radiolabelled
[3] = target: mTRF2 deltaN-49 (Mus musculus) (UniProt O35144); assay: EMSA; settings: supershifted by anti-FLAG; protein in a lysate after overexpression; protein details: FLAG; label: radiolabelled
[4] = target: hTRF1 endogenous (HeLa whole cell extract) (Homo sapiens) (UniProt P54274); assay: EMSA; settings: complex supershifted by TRF1 antibody 5; protein in an extract; label: radiolabelled
[5] = target: hTRF1 HTRF4.1 (XhoI site to stop) (Homo sapiens) (UniProt P54274); assay: EMSA; settings: reticulocyte lysate; protein translated in vitro; label: radiolabelled
[6] = target: mTRF1 MTRF12 (Mus musculus) (UniProt P70371); assay: EMSA; settings: reticulocyte lysate; protein translated in vitro; label: radiolabelled
[7] = target: TRF1 (HeLa TRF, native) (Homo sapiens) (UniProt P54274); assay: EMSA; settings: activity followed during purification; highly purified protein needs beta-casein added back; purified native protein; label: radiolabelled

The chains behind the UniProt entries cited, without tags or fusion partners. A line that says so, or that is headed by a name, gives the form on record, which may keep a tag or linker.
UniProt O35144, other isoform, or with tags, fused parts or gaps: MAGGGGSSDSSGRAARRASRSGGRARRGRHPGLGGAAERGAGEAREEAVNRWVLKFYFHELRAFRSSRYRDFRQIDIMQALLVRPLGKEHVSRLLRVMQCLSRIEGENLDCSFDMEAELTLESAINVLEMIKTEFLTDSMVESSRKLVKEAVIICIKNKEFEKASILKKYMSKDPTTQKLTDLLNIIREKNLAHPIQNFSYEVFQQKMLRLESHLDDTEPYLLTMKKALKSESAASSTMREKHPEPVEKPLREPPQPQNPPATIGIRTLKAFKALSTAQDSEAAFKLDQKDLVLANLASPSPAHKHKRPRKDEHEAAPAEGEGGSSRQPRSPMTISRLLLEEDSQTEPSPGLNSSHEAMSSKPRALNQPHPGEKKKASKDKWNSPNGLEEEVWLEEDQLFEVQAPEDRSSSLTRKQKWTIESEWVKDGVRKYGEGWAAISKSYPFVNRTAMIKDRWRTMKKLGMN
UniProt P54274, other isoform, or with tags, fused parts or gaps: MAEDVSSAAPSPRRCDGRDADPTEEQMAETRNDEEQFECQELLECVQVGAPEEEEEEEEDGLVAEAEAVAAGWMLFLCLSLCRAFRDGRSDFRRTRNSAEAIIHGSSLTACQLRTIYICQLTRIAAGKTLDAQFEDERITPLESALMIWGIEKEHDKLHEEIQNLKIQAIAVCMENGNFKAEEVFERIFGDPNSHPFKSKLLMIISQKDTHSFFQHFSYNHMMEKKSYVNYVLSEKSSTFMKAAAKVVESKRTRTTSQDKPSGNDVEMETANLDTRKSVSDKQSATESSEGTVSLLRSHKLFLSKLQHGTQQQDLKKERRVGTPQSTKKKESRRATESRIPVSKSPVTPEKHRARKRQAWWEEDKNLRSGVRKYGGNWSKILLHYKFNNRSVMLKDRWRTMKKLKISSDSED
UniProt P70371, other isoform, or with tags, fused parts or gaps: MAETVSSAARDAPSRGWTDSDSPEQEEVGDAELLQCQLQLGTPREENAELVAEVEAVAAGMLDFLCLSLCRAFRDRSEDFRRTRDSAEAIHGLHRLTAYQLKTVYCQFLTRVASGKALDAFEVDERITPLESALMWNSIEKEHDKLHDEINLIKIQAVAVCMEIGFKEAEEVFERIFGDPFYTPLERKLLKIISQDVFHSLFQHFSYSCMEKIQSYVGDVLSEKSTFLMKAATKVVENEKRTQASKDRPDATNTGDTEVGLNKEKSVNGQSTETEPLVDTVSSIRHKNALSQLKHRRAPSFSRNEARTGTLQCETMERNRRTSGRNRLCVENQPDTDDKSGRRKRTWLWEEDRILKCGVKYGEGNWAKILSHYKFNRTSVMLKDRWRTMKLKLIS

Row | Sequence | binding result [1] | binding result [2] | binding result [3] | binding result [4] | binding result [5] | binding result [6] | binding result [7]
1 | CCCTAACCCTAACCCTAACCCTAACCCTAACCCTAA [single-stranded [CCCTAA]6] | no binding | – | – | – | – | – | –
2 | TTAGGGTTAGGGTTAGGGTTAGGGTTAGGGTTAGGG [single-stranded [TTAGGG]6] | no binding | – | – | – | – | – | –
3 | GTACCCGGGGATCGTGACTCTAGAGGGGCCCTAACCCTAACCCTAACCCTAACCCTAACCCTAACCCTAACCCTAACCCTAACCCTAACCCTAACCCTAACCCTAACCCGGGTCGAATTCGATCTCTAGAGTCGACCTGCAGGCATGC (double strand) [[TTAGGG]12 restriction fragment probe] | – | binds | binds | binds | binds | binds | binds

— patent publication US20020076719A1 (ROCKEFELLER UNIVERSITY, published 2002)
